Protein sequences, listed by entry. Tags and fused reporters are not part of them. Lines headed by an entry give the natural chain unless they say otherwise; changes in a name come on top.
UniProt Q13886: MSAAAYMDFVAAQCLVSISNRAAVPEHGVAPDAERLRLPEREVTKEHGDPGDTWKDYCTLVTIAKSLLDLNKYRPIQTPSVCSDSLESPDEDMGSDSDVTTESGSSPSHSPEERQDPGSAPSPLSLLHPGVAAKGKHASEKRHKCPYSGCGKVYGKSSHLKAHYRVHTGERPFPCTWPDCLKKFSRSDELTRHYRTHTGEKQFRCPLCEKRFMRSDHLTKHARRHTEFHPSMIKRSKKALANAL
UniProt Q99612: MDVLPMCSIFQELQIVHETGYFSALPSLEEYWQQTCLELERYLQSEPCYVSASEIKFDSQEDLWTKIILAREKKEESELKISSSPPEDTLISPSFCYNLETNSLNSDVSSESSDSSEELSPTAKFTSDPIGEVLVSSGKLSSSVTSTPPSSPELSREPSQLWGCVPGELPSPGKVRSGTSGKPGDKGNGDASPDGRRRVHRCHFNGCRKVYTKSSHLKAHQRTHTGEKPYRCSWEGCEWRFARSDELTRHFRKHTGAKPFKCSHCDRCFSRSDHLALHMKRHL
UniProt Q9UIH9: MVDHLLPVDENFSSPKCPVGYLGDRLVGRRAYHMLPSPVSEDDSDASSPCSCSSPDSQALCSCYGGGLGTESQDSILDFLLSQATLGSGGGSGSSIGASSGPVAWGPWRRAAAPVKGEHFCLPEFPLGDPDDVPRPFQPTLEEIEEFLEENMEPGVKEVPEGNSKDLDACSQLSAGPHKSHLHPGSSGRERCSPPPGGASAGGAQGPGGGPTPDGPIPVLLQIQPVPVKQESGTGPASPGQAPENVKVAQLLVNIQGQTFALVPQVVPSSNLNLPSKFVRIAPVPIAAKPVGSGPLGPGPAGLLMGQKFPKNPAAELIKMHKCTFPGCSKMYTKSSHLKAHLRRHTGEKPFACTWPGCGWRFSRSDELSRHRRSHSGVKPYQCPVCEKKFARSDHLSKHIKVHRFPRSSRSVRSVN

According to patent publication US20170247694:

Key:
Assay in all cases: binding assay
KLF9 = KLF9 (UniProt Q13886); conditions: protein in an extract, protein details: HeLa nuclear extract, Active Motif 36010, label: biotin
KLF6 = KLF6 (UniProt Q99612); conditions: protein in an extract, protein details: HeLa nuclear extract, Active Motif 36010, label: biotin
KLF15 = KLF15 (UniProt Q9UIH9); conditions: protein in an extract, label: biotin
[1] = ELISA, lack of KLF binding to mutant decoys
[2] = ELISA on nuclear extract, text says acts through KLF6, 9 and/or 15

Row | Sequence | binding result (KLF9; [1]) | binding result (KLF6; [1]) | binding result (KLF15; [1]) | binding result (KLF9; [2]) | binding result (KLF6; [2]) | binding result (KLF15; [2])
1 | ATGCAGGAGAAAGATTGGCGTAGTATCTACTAG / CTTCATGATTTTATTGCTTTCAAAATCCAAAAT [MUT1] | no binding | no binding | no binding | – | – | –
2 | GATCCTTTGCCTCCTTCGATCCTTTGCCTCCTTCAAG (double strand) [TFD16] | – | – | – | binds | binds | binds
3 | GGTGTTTGGGAGAGCTTTGGGAGGATACG (double strand) [TFD17] | – | – | – | binds | binds | binds
4 | GTTATGCGTTTGTAGATGCTTTCGTTATAG / CTATTTCGAAACGATCTACATTGGCATAAC [MUT2] | no binding | no binding | no binding | – | – | –

Results from cells or extracts need not show a direct contact. Construct, isoform or probe ends are uncertain for at least one entry. Negatives hold for the conditions tested.
